Changes are numbered by the printed parent chain. Results are given in words; binding and its absence hold for the method and conditions named. Some results given as binding are weak or reduced against the parent protein; the word gives no strength.
What was measured:
human HER3-huFc [1] = biological target: T1, human HER3-huFc (human, UniProt P21860 20-643); test: ELISA after stress tests
T1 construct: also called huHER3; not shown: human Fc (huFc)

By UniProt entry, the sequences of proteins in these tests, tags left out. Where a name states a change or a piece, a line headed by the entry shows the natural chain unless it says otherwise. Chains listed by the source or under a name are the forms on record and can include a tag or linker. Residues count along the entry.
UniProt P21860, residues 20-643: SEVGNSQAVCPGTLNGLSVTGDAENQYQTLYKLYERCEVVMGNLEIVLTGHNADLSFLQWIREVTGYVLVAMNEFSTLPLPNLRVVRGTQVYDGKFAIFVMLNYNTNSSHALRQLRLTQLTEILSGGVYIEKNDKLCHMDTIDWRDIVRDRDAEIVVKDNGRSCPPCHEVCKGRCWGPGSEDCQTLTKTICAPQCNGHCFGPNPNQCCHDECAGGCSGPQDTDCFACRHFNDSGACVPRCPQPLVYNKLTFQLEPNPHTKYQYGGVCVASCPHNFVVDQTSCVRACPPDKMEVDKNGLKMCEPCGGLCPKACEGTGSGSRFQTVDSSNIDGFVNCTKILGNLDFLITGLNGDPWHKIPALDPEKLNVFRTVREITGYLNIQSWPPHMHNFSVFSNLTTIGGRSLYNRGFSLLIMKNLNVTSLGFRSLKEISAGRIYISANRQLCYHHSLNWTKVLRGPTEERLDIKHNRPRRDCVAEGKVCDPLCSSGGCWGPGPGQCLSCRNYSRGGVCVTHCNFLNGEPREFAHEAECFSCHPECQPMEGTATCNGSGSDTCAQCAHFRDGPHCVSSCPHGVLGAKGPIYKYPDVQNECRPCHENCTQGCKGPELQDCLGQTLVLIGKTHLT
cynomolgus monkey HER3 (G7PIG5, form named): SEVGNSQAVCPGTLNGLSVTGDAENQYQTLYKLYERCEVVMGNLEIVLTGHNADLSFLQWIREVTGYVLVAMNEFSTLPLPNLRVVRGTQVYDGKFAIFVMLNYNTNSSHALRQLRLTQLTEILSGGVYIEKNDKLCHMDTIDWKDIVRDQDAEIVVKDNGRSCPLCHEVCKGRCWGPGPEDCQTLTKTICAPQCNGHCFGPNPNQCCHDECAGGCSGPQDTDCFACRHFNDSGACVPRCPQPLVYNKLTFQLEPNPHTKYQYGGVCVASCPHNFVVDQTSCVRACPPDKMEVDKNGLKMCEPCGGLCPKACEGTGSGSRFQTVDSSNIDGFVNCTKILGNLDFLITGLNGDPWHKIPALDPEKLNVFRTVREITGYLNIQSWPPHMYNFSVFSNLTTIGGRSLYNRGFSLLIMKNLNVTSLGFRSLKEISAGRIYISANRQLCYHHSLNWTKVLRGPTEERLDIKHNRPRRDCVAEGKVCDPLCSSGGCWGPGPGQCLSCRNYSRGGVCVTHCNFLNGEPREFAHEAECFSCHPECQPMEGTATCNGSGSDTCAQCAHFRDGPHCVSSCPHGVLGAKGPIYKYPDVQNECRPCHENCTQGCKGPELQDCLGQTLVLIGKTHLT

human HER3-huFc [2] = biological target: T1, human HER3-huFc; test: ELISA after incubation at pH 3.5 for 0, 2, 4, 6 h; antigen not named on the sheet, HER3 ELISA as in paragraph 289
human HER3-huFc [3] = biological target: T1, human HER3-huFc; test: ELISA after 0, 3, 5 freeze-thaw cycles; antigen not named on the sheet, HER3 ELISA as in paragraph 289
human HER3-huFc [4] = biological target: T1, human HER3-huFc; test: ELISA after incubation at 40 °C for 0, 7, 14 days; antigen not named on the sheet, HER3 ELISA as in paragraph 289
human HER3-huFc [5] = biological target: T1, human HER3-huFc; test: ELISA, chimeric antibody run in parallel with the 40 °C stress samples; antigen not named on the sheet, HER3 ELISA as in paragraph 289
human HER3-huFc [6] = biological target: T1, human HER3-huFc; test: ELISA, chimeric antibody run in parallel with the freeze-thaw samples; antigen not named on the sheet, HER3 ELISA as in paragraph 289
human HER3-huFc [7] = biological target: T1, human HER3-huFc; test: ELISA
cynomolgus monkey HER3 [8] = biological target: T2, cynomolgus monkey HER3 (cynomolgus monkey, UniProt G7PIG5 20-643); test: ELISA
human HER3-huFc [9] = biological target: T1, human HER3-huFc; test: ELISA on coated antigen, luminescence readout
cynomolgus monkey HER3 [10] = biological target: T2, cynomolgus monkey HER3; test: ELISA on coated antigen, luminescence readout
human HER3-huFc [11] = biological target: T1, human HER3-huFc; test: ELISA, antigen coated
Procedure: ELISA assay: human HER2-ex-huFc, human HER3-huFc, and human EGFR-his were diluted to 2 μg/mL and 50 μL/well in a 96-well plate and incubated at 4° C. overnight. The plate was washed with 0.5×PBST, then incubated with 100 μL of a blocking buffer (PBS+3% BSA) at 37° C. for 2 h, and washed with 0.5×PBST. The 3F8 antibody was diluted with the blocking buffer in a 1:3 serial gradient, added at 50 μL/well, incubated at 37° C. for 40-50 min, and then washed with 0.5×PBST. […] Prior to assay, 50 μL of luminol buffer A+B was added to each well in a 1:1 mix.
EC50 of murine 3F8 binding to human HER3, HER2, and EGFR was analyzed using GraphPad Prism 6.0.

Measured: binding

B1: humanized 3F8 antibody hu3F8-2 (antibody, human IgG1, kappa, V domains shown)
VH: QVQLQESGPGLVKPSETLSLTCTVSGYSITSAYYWNWIRQPFGKGLEWMGYISYDGRNNFNPSLKNRVTISRDTSKNQFSLKLSSVTAADTAVYYCARDGDYDYFDYWGQGTTVTVSS
VL: DIQMTQSPSSLSASVGDRVTITCRASQDISNYLNWYQQKPGKAPKLLIYYTSILHSGVPSRFSGSGSGTDYTFTISSLQPEDIATYFCQQGDTLPPTFGGGTKLEIKR
notes: also called Clone 2; clone-2
binds: human HER3-huFc [1] | human HER3-huFc [2] | human HER3-huFc [3] | human HER3-huFc [4]

B2: humanized 3F8 antibody hu3F8-1 (antibody, human IgG1, kappa, V domains shown)
VH: B1 VH with F42P, M49I, R72V
VL: B1 VL
notes: also called Clone 1; clone-1
binds: human HER3-huFc [1] | human HER3-huFc [2] | human HER3-huFc [3] | human HER3-huFc [4]

B3: humanized 3F8 antibody hu3F8-3 (antibody, human IgG1, kappa, V domains shown)
VH: B1 VH with T69S, V93T
VL: B1 VL
notes: also called Clone 3; clone-3
binds: human HER3-huFc [1] | human HER3-huFc [2] | human HER3-huFc [3] | human HER3-huFc [4]

B4: chimeric 3F8 antibody (antibody, human IgG1, V domains shown)
VH: DVQLQESGPGLVKPSQSLSLTCSVTGYSITSAYYWNWIRQFPGDKLEWMGYISYDGRNNFNPSLKNRISITRDTSKNQFFLKLNSVTSGDTATYYCARDGDYDYFDYWGQGTTLTVSS
VL: DIQMTQTTSSLSASLGDRVTISCRASQDISNYLNWYQQKPDGTFKLLIYYTSILHSGVPSRFSGSGSGTDYSLTISNLEQEDIATYFCQQGDTLPPTFGAGTKLELK
notes: also called ch3F8; Chimeric antibody
binds: human HER3-huFc [5] | human HER3-huFc [6]

B5: murine 3F8 antibody (antibody, V domains shown)
VH: B4 VH
VL: B4 VL
notes: Mouse hybridoma antibody, made by hybridoma or recombinantly; also called m3F8
binds: human HER3-huFc [7] | cynomolgus monkey HER3 [8] | human HER3-huFc [9] | cynomolgus monkey HER3 [10] | human HER3-huFc [11]
